The record followed here is patent US12181409B2, “Cell imaging composition and cellular material imaging method using same” (EWHA UNIVERSITY-INDUSTRY COLLABORATION FOUNDATION, priority 2019, dated 2024).

The nature of the data set: Reactivity with aminoalcohol, CD and fluorescence measurement. Conditions: for change in CD and fluorescence: mixture with aminopropanol; for reaction with aminopropanol: up to 10 eq of aminopropanol. On the procedure: After Compound 1 (30 mg) was dissolved in 1 mL of CDCl3, 0.5 eq, 1 eq, 2 eq, 5 eq and 10 eq of aminoalcohol were sequentially added and stirred for 30 minutes each time. As a result, ^1H NMR spectra were obtained (FIG. 2A). The aminoalcohol used in the experiment is as follows: […]

Structures are written as SMILES.

Consider `O=C(Nc1ccccc1)Nc1ccccc1CNc1ccccc1C(=O)c1ccccc1` [Comparative Compound 2], for which the “change in CD and fluorescence” value is on record as “no change occurred”; the reaction with aminopropanol entry is given as “No reaction occurred”.

For the compound `OB(O)c1ccccc1CNc1cccc2ccccc12` [Comparative Compound 3], the “change in CD and fluorescence” value is reported as “no change occurred”; the reaction with aminopropanol entry is “No reaction occurred”.

Turning to `O=C(c1ccccc1)c1ccccc1NCc1ccccc1` [Comparative Compound 1], the “change in CD and fluorescence” value is “no change occurred”; the reaction with aminopropanol entry is given as “No reaction occurred”.
